Tested on: Aedes aegypti
Assay: Repellent screening assay (in vitro membrane feeding, Hemotek feeder, treated cloth)
Type: in vivo
Conditions: probit dose-response of repellency, adult females, 30 min exposure
Excerpt: FIG. 1 is a photograph of the equipment used for the repellent screening assay. The apparatus includes a temperature-controlled feeder unit which includes a collagen casing covered by conventional cheese cloth. The collagen mimics the surface of human and is in contact with a heating element (not seen in FIG. 1) whose temperature is controlled by the temperature controller. The collagen pad is saturated with a solution that mimics human blood. The compound whose repellency is to be tested is applied to the cheese cloth, which is then affixed to the collagen pad. In the main panel in FIG. 1, the feeder unit is shown in its operational position, on top of a container in which are mosquitos (or any other arthropod) that is to be repelled. […] In practice, a known amount of putative repellent is applied to the cheese cloth. Unfed mosquitos, for example, are within the mosquito container. The feeder unit is then placed on top of the mosquito container for a pre-determined amount of time. The mosquitos are then sacrificed and examined to determine how many mosquitos fed (i.e., were not repelled) and how many mosquitos were still unfed after the test (i.e., were repelled). In this fashion, very reliable data can be generated regarding the effectiveness of any putative repellent composition. See Katritzky, A. R., et al. (2008) Proc. Nat. […]

Structure (SMILES)	Slope ± SE
CCN(CC)C(=O)c1cccc(C)c1 [DEET, N,N-diethyl-3-methylbenzamide]	1.09 ± 0.35
CCC(C)OC(=O)N1CCCCC1CCO (centres unmarked) [Picaridin]	1.73 ± 0.35

Reference: patent US11603386B2, “Insect, tick, and mite repellent derived from Xenorhabdus budapestensis” (Wisconsin Alumni Research Foundation, priority 2017, dated 2023)
